For one test, the target named is T1, TAB2-Myc (UniProt Q9NYJ8).
T1 sequence: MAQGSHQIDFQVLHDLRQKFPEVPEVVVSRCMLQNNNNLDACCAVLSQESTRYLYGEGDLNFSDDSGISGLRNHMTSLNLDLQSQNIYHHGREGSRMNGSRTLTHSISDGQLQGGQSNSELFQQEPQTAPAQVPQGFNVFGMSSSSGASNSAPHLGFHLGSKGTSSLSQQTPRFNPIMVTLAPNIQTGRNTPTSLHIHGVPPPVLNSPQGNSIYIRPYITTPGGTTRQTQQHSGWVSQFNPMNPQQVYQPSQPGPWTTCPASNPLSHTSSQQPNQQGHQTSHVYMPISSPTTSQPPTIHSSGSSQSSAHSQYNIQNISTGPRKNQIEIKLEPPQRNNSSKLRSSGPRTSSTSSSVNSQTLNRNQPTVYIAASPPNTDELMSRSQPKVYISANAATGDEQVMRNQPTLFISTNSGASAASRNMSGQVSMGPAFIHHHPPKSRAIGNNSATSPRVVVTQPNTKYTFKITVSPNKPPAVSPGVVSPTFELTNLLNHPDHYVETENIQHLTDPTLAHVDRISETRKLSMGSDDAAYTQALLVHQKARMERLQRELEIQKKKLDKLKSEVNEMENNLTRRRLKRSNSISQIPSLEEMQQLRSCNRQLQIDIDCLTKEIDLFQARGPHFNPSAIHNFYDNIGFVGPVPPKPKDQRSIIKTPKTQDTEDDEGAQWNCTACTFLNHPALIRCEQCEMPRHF
The experiment in a line: co-IP; 293T-tet-CLU cells co-transfected with tagged proteins, with or without Dox-induced CLU; IP with Myc or Flag antibody, western blot with tag and CLU antibodies.

Test [1] concerns the target T2, TAK1 (endogenous, H460-tet-CLU cells) (human (endogenous in H460)) (UniProt O43318).
T2 sequence: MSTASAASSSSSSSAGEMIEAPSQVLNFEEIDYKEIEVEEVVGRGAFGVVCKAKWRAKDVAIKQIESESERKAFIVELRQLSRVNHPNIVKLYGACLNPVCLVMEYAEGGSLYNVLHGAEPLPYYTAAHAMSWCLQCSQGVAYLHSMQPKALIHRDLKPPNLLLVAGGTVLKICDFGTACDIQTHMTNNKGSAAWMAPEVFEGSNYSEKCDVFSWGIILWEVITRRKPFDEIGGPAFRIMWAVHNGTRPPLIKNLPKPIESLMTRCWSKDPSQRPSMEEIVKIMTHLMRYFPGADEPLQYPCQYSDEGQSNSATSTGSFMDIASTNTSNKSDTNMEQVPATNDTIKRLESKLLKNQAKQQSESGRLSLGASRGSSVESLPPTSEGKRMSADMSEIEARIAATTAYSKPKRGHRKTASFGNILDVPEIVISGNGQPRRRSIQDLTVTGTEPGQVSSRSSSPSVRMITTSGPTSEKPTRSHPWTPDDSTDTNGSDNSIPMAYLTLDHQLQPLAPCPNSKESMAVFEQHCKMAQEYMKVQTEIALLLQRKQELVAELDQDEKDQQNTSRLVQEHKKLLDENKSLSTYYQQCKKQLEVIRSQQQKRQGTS
The experiment in a line: co-IP; H460-tet-CLU cell lysate, endogenous proteins, with or without Dox-induced CLU; IP with TAK1 antibody, western blot with TGFBR1, TAK1 and CLU antibodies.

These are yes or no findings as the source states them, for the method shown. In cells and extracts the contact can be indirect. Some binding calls cover weakened binding; strength is not graded here. For some assays here: Tags and fused reporters may be left off the sequences shown.

B1: TAK1-Flag (enzyme, UniProt O43318 1-606)
chain: MSTASAASSSSSSSAGEMIEAPSQVLNFEEIDYKEIEVEEVVGRGAFGVVCKAKWRAKDVAIKQIESESERKAFIVELRQLSRVNHPNIVKLYGACLNPVCLVMEYAEGGSLYNVLHGAEPLPYYTAAHAMSWCLQCSQGVAYLHSMQPKALIHRDLKPPNLLLVAGGTVLKICDFGTACDIQTHMTNNKGSAAWMAPEVFEGSNYSEKCDVFSWGIILWEVITRRKPFDEIGGPAFRIMWAVHNGTRPPLIKNLPKPIESLMTRCWSKDPSQRPSMEEIVKIMTHLMRYFPGADEPLQYPCQYSDEGQSNSATSTGSFMDIASTNTSNKSDTNMEQVPATNDTIKRLESKLLKNQAKQQSESGRLSLGASRGSSVESLPPTSEGKRMSADMSEIEARIAATTAYSKPKRGHRKTASFGNILDVPEIVISGNGQPRRRSIQDLTVTGTEPGQVSSRSSSPSVRMITTSGPTSEKPTRSHPWTPDDSTDTNGSDNSIPMAYLTLDHQLQPLAPCPNSKESMAVFEQHCKMAQEYMKVQTEIALLLQRKQELVAELDQDEKDQQNTSRLVQEHKKLLDENKSLSTYYQQCKKQLEVIRSQQQKRQGTS
Take B1: the binding entry with TAB2-Myc is recorded as “binds”.

B2: TGFBR1 (endogenous, H460-tet-CLU cells) (receptor, UniProt P36897 34-503)
chain: LQCFCHLCTKDNFTCVTDGLCFVSVTETTDKVIHNSMCIAEIDLIPRDRPFVCAPSSKTGSVTTTYCCNQDHCNKIELPTTVKSSPGLGPVELAAVIAGPVCFVCISLMLMVYICHNRTVIHHRVPNEEDPSLDRPFISEGTTLKDLIYDMTTSGSGSGLPLLVQRTIARTIVLQESIGKGRFGEVWRGKWRGEEVAVKIFSSREERSWFREAEIYQTVMLRHENILGFIAADNKDNGTWTQLWLVSDYHEHGSLFDYLNRYTVTVEGMIKLALSTASGLAHLHMEIVGTQGKPAIAHRDLKSKNILVKKNGTCCIADLGLAVRHDSATDTIDIAPNHRVGTKRYMAPEVLDDSINMKHFESFKRADIYAMGLVFWEIARRCSIGGIHEDYQLPYYDLVPSDPSVEEMRKVVCEQKLRPNIPNRWQSCEALRVMAKIMRECWYANGAARLTALRIKKTLSQLSQQEGIKM
With B2, in test [1], the binding result is on record as “binds”.
